The values below come from the supplement of paper PMC7411640.

Counter-ions that a name gives are not always drawn. The list shows a part of the results. Most values lie within the scatter of the assay; repeated measurements hardly agree.

For the test, the system named is MDA-MB-468. Briefly: phospho-S6 immunofluorescence (DAPI-normalised), per-plate z-score; higher = higher phospho-S6 signal (less pathway suppression). Particulars: 24 h. The method, then:
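GPCR-targeted compound library (MedChemExpress HY-L006) tested on MDA-MB-468 PTEN-null TNBC cells in 384-well plates at 0.1, 1 or 10 uM, combined with vehicle, GDC0941 450 nM or lapatinib 1 uM, for 24 h. Phospho-S6 (S240/244) immunofluorescence normalised to DAPI and expressed as a per-plate z-score; values are the mean of biological triplicates.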

[1] abbreviates: compound 0.1 µM, co-treatment: GDC0941 450 nM.
[2] abbreviates: compound 0.1 µM, co-treatment: lapatinib 1 uM.
Setting [3] is: compound 0.1 µM, co-treatment: vehicle.
The mark [4] stands for this setting: compound 1 µM, co-treatment: GDC0941 450 nM.
Where [5] appears, read: compound 1 µM, co-treatment: lapatinib 1 uM.
Where [6] appears, read: compound 1 µM, co-treatment: vehicle.
Setting [7] is: compound 10 µM, co-treatment: GDC0941 450 nM.
The mark [8] stands for this setting: compound 10 µM, co-treatment: lapatinib 1 uM.
Setting [9] is: compound 10 µM, co-treatment: vehicle.

On to `COc1cc(/C=C/C(=O)O)ccc1O` [Ferulic acid (sodium)], for which the “phospho-S6 immunofluorescence (z-score)” value was determined as 0.8 under setting [1]; 0.73 under setting [2]; 0.22 under setting [3]; 0.42 under setting [4]; 0.49 under setting [5]; 0.82 under setting [6]. Also, the “phospho-S6 immunofluorescence (z-score)” value reads like this: under setting [7], 0.56; under setting [8], 0.36; under setting [9], 0.33.

Take `CC1(C)CN2C(CSC(=NC3CCCCC3)NC3CCCCC3)=CSC2=N1` [IT1t (dihydrochloride)]: the “phospho-S6 immunofluorescence (z-score)” value reads like this: under setting [1], -2.06; under setting [2], -1.02; under setting [3], -0.78; under setting [4], -2.08; under setting [5], -0.61; under setting [6], -0.93. Also, the “phospho-S6 immunofluorescence (z-score)” value under setting [7] was -2.08, the “phospho-S6 immunofluorescence (z-score)” value under setting [8] is -0.41 and the “phospho-S6 immunofluorescence (z-score)” value under setting [9] was -1.11.

For `CN1CCN(CCCN2c3ccccc3Sc3ccc(C(F)(F)F)cc32)CC1` [Trifluoperazine (dihydrochloride)], the “phospho-S6 immunofluorescence (z-score)” value was 1.14 under setting [1]; -0.57 under setting [2]; 0.49 under setting [3]; 1.46 under setting [4]; -2.17 under setting [5]; 0.64 under setting [6]. For the same molecule, the “phospho-S6 immunofluorescence (z-score)” value reads like this: under setting [7], -4.47; under setting [8], -5.54; under setting [9], -4.02.

As for `COc1ccc(CNC(=O)c2sc3nc(C)cc(C)c3c2N)cc1`, the “phospho-S6 immunofluorescence (z-score)” value under setting [1] is -0.46; the “phospho-S6 immunofluorescence (z-score)” value under setting [2] is -0.73; the “phospho-S6 immunofluorescence (z-score)” value under setting [3] is -1.42; the “phospho-S6 immunofluorescence (z-score)” value under setting [4] came to 0.21; the “phospho-S6 immunofluorescence (z-score)” value under setting [5] worked out at 1.61; the “phospho-S6 immunofluorescence (z-score)” value under setting [6] was found to be 0.39. In addition, the “phospho-S6 immunofluorescence (z-score)” value is, setting by setting: under setting [7], -1.98; under setting [8], 1.66; under setting [9], 0.34.

`Cc1ccc(C(=O)Nc2ccc(S(=O)(=O)O)c3cc(S(=O)(=O)O)cc(S(=O)(=O)O)c23)cc1NC(=O)c1cccc(NC(=O)Nc2cccc(C(=O)Nc3cc(C(=O)Nc4ccc(S(=O)(=O)O)c5cc(S(=O)(=O)O)cc(S(=O)(=O)O)c45)ccc3C)c2)c1` [Suramin (sodium salt)]: the “phospho-S6 immunofluorescence (z-score)” value under setting [1] was -0.02; the “phospho-S6 immunofluorescence (z-score)” value under setting [2] is -0.56; the “phospho-S6 immunofluorescence (z-score)” value under setting [3] was -0.76; the “phospho-S6 immunofluorescence (z-score)” value under setting [4] was -0.2; the “phospho-S6 immunofluorescence (z-score)” value under setting [5] is -0.35; the “phospho-S6 immunofluorescence (z-score)” value under setting [6] was -0.23. In addition, the “phospho-S6 immunofluorescence (z-score)” value was 0.54 under setting [7], 1.39 under setting [8] and -0.09 under setting [9].
